Values joined by “and” are separate entries in the source; they are usually repeats but may differ in a detail not shown here. Equal values may be shown once. The campaign covered roughly 340,000 compounds. About 6,200 (1.8%) were called active. The inconclusive results got no clear call from the source; some entries with a clear call stand among them for comparison. Calls come from the whole dose curve; as a rule, active = well fitted activation curve with a large enough effect; inconclusive = small, poorly fitted or top-dose-only effect; inactive = no such curve, though single readings can be large or run the other way. A potency beside an inconclusive call is a rough fit, not a confirmed value.
Test: A quantitative high throughput screen for small molecules that induce DNA re-replication in SW480 colon adenocarcinoma cells. Note: nearly all actives have a fitted effect of over 55% in size.
Conditions: Hoechst DNA content imaging, 48 h; series mostly up to 46.1 µM
In short: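 Treated cells incubate 48 hr (37 C, 5% CO2), are stained 40 min with Hoechst, and nuclear fluorescence is enumerated; a rise in nuclei with high DNA signal marks re-replication.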
Potency is the fitted concentration of half-maximal effect.

SMILES | Potency
COc1ccc(NC(=O)Nc2cccc3ccccc23)c(OC)c1 | inconclusive: 32.6 µM [activator, single point]
c1cnc2c(c1)ccc1cccnc12 | inconclusive: 16.4 µM [activator, single point] and inconclusive: 2.31 µM [activator, full curve]
Cn1c(=O)c2c(ncn2CC(=O)Nc2nc(-c3ccc(F)c(F)c3)cs2)n(C)c1=O | inconclusive: 20.6 µM [activator, single point]
CCCOc1ccc(CC(=O)NCCc2ccccc2)cc1OC | inconclusive: 0.731 µM [activator, partial curve, poor fit]
COC(=O)c1ccc(CN2C(=O)NC(CC(C)C)C2=O)cc1 (configuration not stated) | inactive
CC(=O)Nc1ccc(S(=O)(=O)NCc2ccc(C(=O)NCCCN3CCC(C)CC3)cc2)cc1 | inconclusive: 2.31 µM [activator, single point]
Cc1ccc(C2=NN(C(=O)CN3C(=O)c4ccccc4S3(=O)=O)C(c3ccco3)C2)cc1 (configuration not stated) | inconclusive: 14.6 µM [activator, single point]
Cc1cc(C)n2nc(SC(C)C(=O)N(C)C3CCCCC3)nc2n1 (configuration not stated) | inactive
COc1cccc(Nc2ncnc3c2cnn3C)c1 | inconclusive: 29.1 µM [activator, single point]
COC(=O)c1cccc(C23CC4(C2)[C@H](CN(Cc2cccnc2)[C@@H]4c2ccccc2)C3c2ccccc2)c1 (some centres not stated) | inconclusive: 14.6 µM [activator, single point]
COc1ccc(C2(c3ccc(OC)cc3)NC(=O)N(CC(=O)Nc3ccc(OC(F)F)cc3)C2=O)cc1 | inconclusive: 29.1 µM [activator, single point]
Cc1ccc(NC(=O)c2cc(N3C(=O)C=CC3=O)ccc2N2CCOCC2)cc1Cl | inconclusive: 20.6 µM [activator, single point]
N#CC1=C(N)N(c2ccc(Br)cc2)C2=C(C(=O)CCC2)C1c1cccnc1 (configuration not stated) | inconclusive: 29.1 µM [activator, single point]
CCOC(=O)c1cc(NC(=O)CNCC(c2ccccc2)N(C)C)cc(C(=O)OCC)c1 (configuration not stated) | inconclusive: 18.4 µM [activator, single point]
Cc1cc(C)c(NC(=O)Nc2ccccc2)c(Cl)c1 | inconclusive: 0.164 µM [activator, full curve, poor fit]
COc1ccc(C(O)c2nccn2Cc2ccccc2)cc1OC (configuration not stated) | inconclusive: 29.1 µM [activator, single point]
Cc1ccc(C(=O)N2CCN(c3ccccn3)CC2)cc1C | inactive
CN(Cc1ccccc1)c1c([N+](=O)[O-])c(=O)n(C)c2ccccc12 | inactive
COC/C=C/C1=CC2=CC(=O)C(C)(OC(=O)c3cnc4ccccc4n3)C(=O)C2=CN1C1CC1 (configuration not stated) | inconclusive: 16.4 µM [activator, single point]
COc1ccc(C)cc1NC(=O)Nc1ccc(C(=O)N2CCCC2)cc1 | inactive
Cc1ccc2cc(C)c3nnc(SCC(=O)Nc4nc5c(s4)CCCC5)n3c2c1C | inconclusive: 23.1 µM [activator, single point]

SMILES | Potency
COc1ccc(-c2csc(N3CCN(c4cc5c(cc4Cl)nc(-c4ccncc4)n5CCOCCO)CC3)n2)cc1 | inconclusive: 18.4 µM [activator, single point]
COc1ccc(NC(=O)c2ccc3ccccc3c2OC)cc1 | inconclusive: 20.6 µM [activator, single point]
COc1ccc(-c2ccc(OC)c([C@H]3[C@@H]4C=CCC[C@@]4(C)C(=O)N3Cc3ccccc3)c2)cc1OC | inconclusive: 29.1 µM [activator, partial curve, poor fit]
Cc1cccc(C=CC(=O)c2ccccc2)c1 | inconclusive: 25.9 µM [activator, single point]
COc1ccc(C(CNc2ncnc3sccc23)N(C)C)cc1OC (configuration not stated) | inactive
CCCCN(C)C(=O)Cn1c(=O)oc2cc(S(=O)(=O)N3CC(C)CC(C)C3)ccc21 (configuration not stated) | inconclusive: 29.1 µM [activator, single point]
O=C(CCl)Nc1cc(SCC(O)CO)cc([N+](=O)[O-])c1 (configuration not stated) | active: 5.8 µM
O=C(COC(=O)c1cc(-c2cccc(Br)c2)nc2ccccc12)NCC1CCCO1 (configuration not stated) | inconclusive: 18.4 µM [activator, partial curve, poor fit]
Cc1ccc2oc(=S)n(C)c2c1 | inconclusive: 29.1 µM [activator, partial curve, poor fit]
O=C(OCc1ccccc1)N1CCC2CC1c1cc(-c3ccc(F)cc3)ccc12 (configuration not stated) | inconclusive: 29.1 µM [activator, partial curve, poor fit]
COc1cc(/C=N/NC(=Nc2ccc(C)cc2)c2nc3ccccc3s2)ccc1O | inconclusive: 35.5 µM [activator, partial curve, poor fit]
CC(C)C[C@H](NC(=O)c1nc[nH]c1C(=O)N1CCN(c2ccccc2)CC1)C(=O)OC(C)(C)C | inactive
COCCN(C(=O)CSc1ccc2c(c1)OCCO2)c1c(N)n(CC(C)C)c(=O)[nH]c1=O | inactive
CSc1nc(N)nc(SCC(=O)C23CC4CC(CC(C4)C2)C3)c1C#N | inconclusive: 18.4 µM [activator, single point]
Cc1cc2nccc(-c3ccncc3)n2n1 | inactive
N=c1n(CC(=O)O)c2ccccc2n1Cc1ccccc1Cl | inactive
O=C(NCC1CCCO1)c1ccc2c(=O)n(Cc3cccc(Br)c3)c(=S)[nH]c2c1 (configuration not stated) | inactive
O=C1CN(S(=O)(=O)c2cccc(Br)c2)CCN1 | inactive
COc1ccc(-c2cc3c(=O)n(CC(=O)Nc4cccc(Cl)c4)nc(C)n3n2)cc1 | inconclusive: 6.51 µM [activator, single point]
Nc1nonc1-n1nnc(C(=O)N/N=C/c2cc(Br)ccc2O)c1CNc1ccccc1 | inconclusive: 7.31 µM [activator, partial curve]
CNC(=O)CC1C(=O)N(c2ccc(Cl)cc2)C(=S)N1CCc1ccc(OC)c(OC)c1 (configuration not stated) | inconclusive: 14.1 µM [activator, single point]

No new results follow: entries from further up.
SMILES | Potency
Nc1nonc1-n1nnc(C(=O)N/N=C/c2cc(Br)ccc2O)c1CNc1ccccc1 | inconclusive: 7.31 µM [activator, partial curve]
CNC(=O)CC1C(=O)N(c2ccc(Cl)cc2)C(=S)N1CCc1ccc(OC)c(OC)c1 (configuration not stated) | inconclusive: 14.1 µM [activator, single point]

From PubChem BioAssay AID624297 (National Center for Advancing Translational Sciences (NCATS), 2012)
